{
  "source": "PubChem BioAssay AID590",
  "about": "(National Center for Advancing Translational Sciences (NCATS), 2007)",
  "note": "The campaign covered roughly 59,000 compounds. About 6,500 (11%) were called active. Inconclusive means that the source gave no clear call. Such entries were picked first, then a sample of the others. No stated cut-off is given here; in the data, active means max dye-equivalent concentration above about 10 nM; inconclusive means mostly about 1.1 nM to 9.6 nM; inactive means weaker than that.",
  "data": [
    {"assay": "qHTS Assay for Spectroscopic Profiling in A350 Spectral Region", "conditions": "Compound autofluorescence, 340/450 nm, Alexa 350 dye-equivalents; hits give high values", "values": [
      {"smiles": "O=C(O)C1Sc2[nH]c(=O)sc2C2c3cc(Cl)ccc3OC(=O)C12", "note": "(centres undefined)", "max dye-equivalent concentration": "inconclusive: 2.4 nM"},
      {"smiles": "Cc1ccc(C2/C(=C(\\O)c3ccc4c(c3)OCCO4)C(=O)C(=O)N2CCCN(C)C)o1", "note": "(centres undefined)", "max dye-equivalent concentration": "inconclusive: 5.7 nM"},
      {"smiles": "CCn1c(SCc2cccnc2)nc2c1c(=O)n(C)c(=O)n2C", "max dye-equivalent concentration": "inconclusive: 5 nM"},
      {"smiles": "O=S(=O)(NCC1CCCO1)c1ccc(Cl)c(C(F)(F)F)c1", "note": "(centres undefined)", "max dye-equivalent concentration": "inactive"},
      {"smiles": "C=CCn1c(COc2ccccc2)nnc1SCC(=O)NCC(=O)OCC", "max dye-equivalent concentration": "inconclusive: 1.4 nM"},
      {"smiles": "O=C(C1CCCCC1)N1CCC(c2nc3ccccc3[nH]2)CC1", "max dye-equivalent concentration": "inactive"},
      {"smiles": "COc1ccc(C)cc1S(=O)(=O)N(CC(=O)N1CCOCC1)Cc1ccccc1", "max dye-equivalent concentration": "inconclusive: 1.1 nM"},
      {"smiles": "C=CCSc1nc2c(N)ncnc2n1[C@@H]1O[C@H](CO)[C@@H](O)[C@@H]1O", "max dye-equivalent concentration": "inactive"},
      {"smiles": "COCCOC(=O)C1=C(C)NC2=C(C(=O)CC(c3cccs3)C2)C1c1ccsc1", "note": "(centres undefined)", "max dye-equivalent concentration": "active: 190 nM"},
      {"smiles": "CCOc1ccc(C(=O)Nc2ccc3c(c2)OCCO3)cc1OC", "max dye-equivalent concentration": "inconclusive: 9.6 nM"},
      {"smiles": "CC(C)CNC(=O)c1cccc(NC(=O)c2ccc(NC(=O)c3ccco3)cc2)c1", "max dye-equivalent concentration": "inactive"},
      {"smiles": "CCOc1ccc(OCc2ccc(C(=O)OCc3ccccn3)o2)cc1", "max dye-equivalent concentration": "inconclusive: 3.2 nM"},
      {"smiles": "CNC(=O)Nc1ccccc1C(=O)NCc1ccccc1", "max dye-equivalent concentration": "inactive"},
      {"smiles": "COc1ccc(-n2c(=O)c(C)nc3cnc(N(C)C)nc32)cc1", "max dye-equivalent concentration": "active: 16 nM"},
      {"smiles": "O=C(CN1CCCc2ccccc21)NC(=O)NCc1ccco1", "max dye-equivalent concentration": "inconclusive: 1.9 nM"},
      {"smiles": "Cc1c(-c2nc(N)nc(Nc3ccccc3F)n2)oc2ccccc12", "max dye-equivalent concentration": "inconclusive: 9.9 nM"},
      {"smiles": "O=C(CN1CCC(n2nnc3cc(F)ccc32)CC1)N1CCCc2ccccc21", "max dye-equivalent concentration": "inconclusive: 1.2 nM"},
      {"smiles": "COc1ccc2cc3cc(C(=O)N4CCN(Cc5ccc6c(c5)OCO6)CC4)oc3nc2c1", "max dye-equivalent concentration": "active: 180 nM"},
      {"smiles": "Cn1c(CCNC(=O)c2cccs2)nnc1SCC(=O)N1CCN(c2ccccc2)CC1", "max dye-equivalent concentration": "inconclusive: 3.2 nM"},
      {"smiles": "O=C(Nc1ccc2nn(-c3ccccc3)nc2c1)c1ccc(Br)o1", "max dye-equivalent concentration": "active: 79 nM"},
      {"smiles": "O=C1C(=O)N(CCN2CCOCC2)C(c2ccccn2)/C1=C(/O)c1ccc(F)cc1", "note": "(centres undefined)", "max dye-equivalent concentration": "inconclusive: 1.5 nM"},
      {"smiles": "C=C1CC[C@H]2C(C)(C)[C@H](O)CC[C@]2(C)[C@@H]1COc1ccc2ccc(=O)oc2c1", "max dye-equivalent concentration": "inconclusive: 6.1 nM"},
      {"smiles": "C=C(C)COc1ccc(-c2nc(N)nc(C)c2Oc2ccccc2OC)c(O)c1", "max dye-equivalent concentration": "inconclusive: 1.4 nM"},
      {"smiles": "COc1ccccc1Nc1nc(NCCO)c2ccccc2n1", "max dye-equivalent concentration": "inactive"}
    ]}
  ]
}
